PubChem BioAssay AID1259254 | NCATS | 2017

Aim: 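Genome-wide screen for genes that prevent DNA re-replication in cancer cells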 (primary screen)
System: human HCT116 colorectal cancer cells
Knock-down reagent: single siRNA against human genes
Time to read-out: 3 days
Read-out: 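Imaged Hoechst DNA stain sorts each cell into a cycle phase by DNA amount; per plate, G2 fraction set to 0% for non-targeting and 100% for GMNN siRNA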
Reading the numbers: G2 robust z-score: higher = more G2 cells, more excess DNA replication
Rule for the call: 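Active siRNAs have a G2 robust z of 5 or more median absolute deviations over the median, which in these data means about 38% or higher of GMNN control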
Shown is one part, drawn at random, of about 59,000 reagents. About 1,550 of all reagents (2.6%) count as active. 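G2 share is only a proxy for re-replication; each gene was hit by three separate siRNAs, and active genes were retested.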 Reagents against one gene are numbered here. Not all columns of the deposit are shown. The record does not give: the amount of reagent.

NSUN7 #1 → G2 robust z-score: -1.35; outcome: inactive
NSUN7 #2 → G2 robust z-score: 8.22; outcome: active
NSUN7 #3 → G2 robust z-score: 0.252; outcome: inactive
IFNWP2 #1 → G2 robust z-score: 2.84; outcome: inactive
IFNWP2 #2 → G2 robust z-score: 1.42; outcome: inactive
IFNWP2 #3 → G2 robust z-score: -0.653; outcome: inactive
KCNE5 #1 → G2 robust z-score: 3.35; outcome: inactive
KCNE5 #2 → G2 robust z-score: 0.473; outcome: inactive
KCNE5 #3 → G2 robust z-score: 1.62; outcome: inactive
TRABD #1 → G2 robust z-score: -0.594; outcome: inactive
TRABD #2 → G2 robust z-score: 3.24; outcome: inactive
TRABD #3 → G2 robust z-score: 1.5; outcome: inactive
KCNIP1 #1 → G2 robust z-score: -0.147; outcome: inactive
KCNIP1 #2 → G2 robust z-score: 0.443; outcome: inactive
KCNIP1 #3 → G2 robust z-score: -0.0379; outcome: inactive

Records listed so far with an active call, once more:
NSUN7 #2 → G2 robust z-score: 8.22; outcome: active

Additional reagents follow:
TMEM43 #1 → G2 robust z-score: -1.28; outcome: inactive
TMEM43 #2 → G2 robust z-score: -0.0608; outcome: inactive
TMEM43 #3 → G2 robust z-score: -0.57; outcome: inactive
E2F5 #1 → G2 robust z-score: -0.572; outcome: inactive
E2F5 #2 → G2 robust z-score: -0.396; outcome: inactive
E2F5 #3 → G2 robust z-score: 4.23; outcome: inactive
ARV1 #1 → G2 robust z-score: 0.388; outcome: inactive
ARV1 #2 → G2 robust z-score: 0.0479; outcome: inactive
ARV1 #3 → G2 robust z-score: 5.65; outcome: active
PRR7 #1 → G2 robust z-score: 0.84; outcome: inactive
PRR7 #2 → G2 robust z-score: 2.11; outcome: inactive
PRR7 #3 → G2 robust z-score: -0.771; outcome: inactive
NR2E3 #1 → G2 robust z-score: 1.91; outcome: inactive
NR2E3 #2 → G2 robust z-score: -0.434; outcome: inactive
NR2E3 #3 → G2 robust z-score: -1.28; outcome: inactive
